Results are given in words; binding and its absence hold for the method and conditions named. A result given as binding can be weak or reduced; the word gives no strength.
Target: monkey 4-1BB-his protein (monkey)
Experiment: ELISA: monkey 4-1BB-his coated at 1.0 µg/mL, antibody titrated, HRP secondary antibody, OD450

B1: 119B6G5 (antibody, V domains shown)
VH: EVQLLESGGGLVQPGGSLRLSCAASGFTFSNYAMSWVRQGPGKGLEWVSTIIGSGDSTYYTDSVKGRFTISRDNSKNTLFLQMNSLRAEDTAVYYCARDKSGWYYFDYWGQGTLVTVSS
VL: DIQMTQSPSTLSASVGDRVTITCRASQSISNWLAWYQQKPGKAPKLLIYKASSLESGVPSRFSGSGSGTEFTLTISSLQPDDFATYYCQQYNDYFPITFGQGTRLEIK
binding: binds

Source: US20200347144A1
